PubChem BioAssay (EPA / NIEHS)
Values joined by “and” are separate entries in the source; they are usually repeats but may differ in a detail not shown here. Equal values may be shown once. Inconclusive results, whose numbers are uncertain, are shown with a selection of clear calls. Where the call is inconclusive, the potency comes from a doubtful curve fit. Active and inactive are the calls of the source. Rule for the calls: active = hit-call score of the fitted dose curve at least 0.9, where 1 is the maximum; inconclusive = response in the unintended direction; inactive = score below 0.9.

Assay: Tanguay_ZF_120hpf_EYE_legacy: (Legacy) Oregon State University Tanguay Lab 120 Hour Post-fertilization zebrafish Assay for Eye Malformation (AID 2283636);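 note: binary presence or absence of eye malformation scored by brightfield in 120 hpf larvae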
In short: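 Binary brightfield scoring of eye defects at 120 hpf after static exposure from 6 hpf of single pronase-dechorionated wild-type embryos (28C, 0.64% DMSO). Non-mortality endpoints omitted where embryos died; fit vs DMSO.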

SMILES	outcome	AC50
Nn1cnnc1	inactive	–
CCN(CC)C(=O)SCc1ccc(Cl)cc1	–	inconclusive: 2 µM
O=C(Nc1ccccc1)Nc1cnns1	inactive	–
CCc1nn(C)c(C(=O)NCc2ccc(C(C)(C)C)cc2)c1Cl	inactive	–
CCCCC(O)(Cn1cncn1)c1ccc(Cl)cc1Cl (centres undefined)	–	inconclusive: 0.0214 µM
CO/N=C(/C1=NOCCO1)c1ccccc1Oc1ncnc(Oc2ccccc2Cl)c1F	inactive	–
CN1CSC(=S)N(C)C1	–	active: 34.9 µM
O=c1[nH]c(=O)[nH]c(=O)[nH]1	inactive	–
CC(C)Oc1cccc(NC(=O)c2ccccc2C(F)(F)F)c1	–	active: 15.5 µM
C=CC1(C)OC(=O)N(c2cc(Cl)cc(Cl)c2)C1=O (centres undefined)	inactive	–
O=[N+]([O-])c1cc(C(F)(F)F)c(Cl)c([N+](=O)[O-])c1Nc1ncc(C(F)(F)F)cc1Cl	–	inconclusive: 14.5 µM
CCC(C)c1ccc(O)cc1 (centres undefined)	inactive	–
[As]#[In]	–	inconclusive: 189 µM
CCCN(CCC)c1c([N+](=O)[O-])cc(S(N)(=O)=O)cc1[N+](=O)[O-]	–	inconclusive: 202 µM
C#CCOS(=O)OC1CCCCC1Oc1ccc(C(C)(C)C)cc1 (centres undefined)	–	inconclusive: 70.3 µM
Oc1cccc2cccnc12	–	inconclusive: 0.16 µM
C[N+]1(C)CCCCC1	inactive	–
CCOc1cc(Oc2ccc(C(F)(F)F)cc2Cl)ccc1[N+](=O)[O-]	–	inconclusive: 56.6 µM

SMILES	outcome	AC50
O=C1C2CC=CCC2C(=O)N1SC(Cl)(Cl)Cl (centres undefined)	–	inconclusive: 2.44 µM
C=C(C)CN(CC)c1c([N+](=O)[O-])cc(C(F)(F)F)cc1[N+](=O)[O-]	–	inconclusive: 40.9 µM
Clc1ccccc1-c1nnc(-c2ccccc2Cl)nn1	inactive	–
CC(C)(C)C(O)/C(=C\c1ccc(Cl)cc1Cl)n1cncn1 (centres undefined)	–	active: 37.4 µM
N#Cc1cc(Br)c(O)c(Br)c1	inactive	–
CCNS(=O)(=O)C(F)(F)C(F)(F)C(F)(F)C(F)(F)C(F)(F)C(F)(F)C(F)(F)C(F)(F)F	–	active: 53.6 µM
CC(C)(C)C(O)C(Oc1ccc(Cl)cc1)n1cncn1 (centres undefined)	–	active: 43.8 µM and active: 32.4 µM and active: 39.9 µM
CCCOCC(=Nc1ccc(Cl)cc1C(F)(F)F)n1ccnc1	–	inconclusive: 136 µM
O=C(O)C1C(C(=O)O)C2(Cl)C(Cl)=C(Cl)C1(Cl)C2(Cl)Cl (centres undefined)	inactive	–
Oc1ccc(C(c2ccc(O)cc2)(C(F)(F)F)C(F)(F)F)cc1	–	active: 53.9 µM
COC(=O)c1c(C(F)F)nc(C(F)(F)F)c(C2=NCCS2)c1CC(C)C	–	inconclusive: 202 µM
Cc1cc2c3c(c1)C(c1ccccc1)=N[C@@H](NC(=O)c1ccncc1)C(=O)N3CC2	inactive	–
OCCOc1ccccc1	–	inconclusive: 3.02 µM
Nc1c(Cl)cc([N+](=O)[O-])cc1Cl	–	active: 9.62 µM
CCSC(=O)N(CC)C1CCCCC1	–	inconclusive: 135 µM
O=C(O)C(F)(F)C(F)(F)C(F)(F)C(F)(F)C(F)(F)C(F)(F)C(F)(F)C(F)(F)C(F)(F)F	–	inconclusive: 30.1 µM
COC(=O)C=C(C)OP(=O)(OC)OC	inactive	–

Assay: Tanguay_ZF_120hpf_SNOU_legacy: (Legacy) Oregon State University Tanguay Lab 120 Hour Post-fertilization zebrafish Assay for Snout Malformation (AID 2283637)
In short: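 Binary snout-malformation call at 120 hpf in wild-type 5D embryos, chorion removed by pronase, under static exposure from 6 hpf at 28C (0.64% DMSO). Embryos dying by 24 or 120 hpf excluded.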

SMILES	AC50	outcome
Oc1ccc(Cl)cc1Cc1ccccc1	inconclusive: 20.4 µM	inactive
O=C(Nc1ccccc1)Nc1cnns1	–	inactive
CCc1nn(C)c(C(=O)NCc2ccc(C(C)(C)C)cc2)c1Cl	active: 6.18 µM	–
CO/N=C(/C1=NOCCO1)c1ccccc1Oc1ncnc(Oc2ccccc2Cl)c1F	inconclusive: 20.2 µM	–
CCC(C)c1ccc(O)cc1 (centres undefined)	–	inactive
Cc1c(F)c(F)c(COC(=O)C2C(/C=C(\Cl)C(F)(F)F)C2(C)C)c(F)c1F (centres undefined)	active: 4.35 µM	–
Clc1ccccc1-c1nnc(-c2ccccc2Cl)nn1	inconclusive: 198 µM	–
CC(C)(C)C(O)/C(=C\c1ccc(Cl)cc1Cl)n1cncn1 (centres undefined)	active: 30.9 µM	–
Oc1ccc(C(c2ccc(O)cc2)(C(F)(F)F)C(F)(F)F)cc1	active: 53.8 µM	–
CC(=O)[O][Hg][c]1ccccc1	–	inactive
Nc1c(Cl)cc([N+](=O)[O-])cc1Cl	active: 31.1 µM	–
O=C(O)C(F)(F)C(F)(F)C(F)(F)C(F)(F)C(F)(F)C(F)(F)C(F)(F)C(F)(F)C(F)(F)F	–	inactive

Entries of single compounds as entered above:
O=C(O)C(F)(F)C(F)(F)C(F)(F)C(F)(F)C(F)(F)C(F)(F)C(F)(F)C(F)(F)C(F)(F)F is listed as outcome: inactive
CCC(C)c1ccc(O)cc1 (centres undefined) is listed as outcome: inactive
Clc1ccccc1-c1nnc(-c2ccccc2Cl)nn1 is listed as AC50: inconclusive: 198 µM
Oc1ccc(C(c2ccc(O)cc2)(C(F)(F)F)C(F)(F)F)cc1 is listed as AC50: active: 53.8 µM

Assay: Tanguay_ZF_120hpf_JAW_legacy: (Legacy) Oregon State University Tanguay Lab 120 Hour Post-fertilization zebrafish Assay for Jaw Malformation (AID 2283638);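 for AC50: active means more embryos with jaw malformation than DMSO controls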
In short: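 Tropical 5D wild-type embryos, dechorionated with pronase at 4 hpf, were placed singly per well at 6 hpf and statically exposed at 28C until 120 hpf (0.64% DMSO final). Jaw malformation scored as present/absent by brightfield microscopy at 120 hpf, analyzed relative to DMSO.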

SMILES	outcome	AC50
CCC(C)c1ccc(O)cc1 (centres undefined)	inactive	–
CCCN(CCC)c1c([N+](=O)[O-])cc(S(N)(=O)=O)cc1[N+](=O)[O-]	–	inconclusive: 29.9 µM and inconclusive: 158 µM
Cc1c(F)c(F)c(COC(=O)C2C(/C=C(\Cl)C(F)(F)F)C2(C)C)c(F)c1F (centres undefined)	–	active: 2.75 µM
CCCOCC(=Nc1ccc(Cl)cc1C(F)(F)F)n1ccnc1	inactive	–
CC(=O)[O][Hg][c]1ccccc1	inactive	–
O=C(O)C(F)(F)C(F)(F)C(F)(F)C(F)(F)C(F)(F)C(F)(F)C(F)(F)C(F)(F)C(F)(F)F	inactive	–
